Target: Dual specificity tyrosine-phosphorylation-regulated kinase 1B (Homo sapiens, UniProt Q9Y463)
Assay: Inhibition of DYRK1B (unknown origin)

Chains of the proteins cited; added tags and fusions are not shown.
UniProt Q9Y463, whole entry: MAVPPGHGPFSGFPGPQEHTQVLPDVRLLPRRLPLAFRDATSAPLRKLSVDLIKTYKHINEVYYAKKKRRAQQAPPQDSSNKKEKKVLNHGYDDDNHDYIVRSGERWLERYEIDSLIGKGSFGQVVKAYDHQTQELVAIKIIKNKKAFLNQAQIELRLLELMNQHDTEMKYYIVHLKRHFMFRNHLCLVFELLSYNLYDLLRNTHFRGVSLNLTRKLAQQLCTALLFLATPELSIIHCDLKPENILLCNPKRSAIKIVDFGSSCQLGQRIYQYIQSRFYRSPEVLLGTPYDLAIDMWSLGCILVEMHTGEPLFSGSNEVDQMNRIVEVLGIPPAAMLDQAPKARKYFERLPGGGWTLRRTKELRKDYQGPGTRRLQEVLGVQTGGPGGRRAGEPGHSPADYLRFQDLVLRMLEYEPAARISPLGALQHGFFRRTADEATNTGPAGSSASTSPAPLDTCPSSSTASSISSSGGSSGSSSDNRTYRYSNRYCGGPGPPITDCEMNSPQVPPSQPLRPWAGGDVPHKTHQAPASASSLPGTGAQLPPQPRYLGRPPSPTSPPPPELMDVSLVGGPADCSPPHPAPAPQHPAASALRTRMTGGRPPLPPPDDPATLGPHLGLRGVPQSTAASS

IC50: 3 nM
SMILES: Oc1ccc(-c2n[nH]c3ncc(-c4ccc(O)c(O)c4)cc23)cc1

— ChEMBL document CHEMBL4819156, “Synthesis of novel 1H-Pyrazolo[3,4-b]pyridine derivatives as DYRK 1A/1B inhibitors” (Bioorg Med Chem Lett, 2021)
